Some of the results follow.
Test system: T1, CTL2-GFP (C. trachomatis L2/434/Bu, GFP-expressing)
T1 construct: L2/434/Bu, GFP-expressing
Design: species or system HeLa; Intracellular C. trachomatis growth in HeLa cells, bulk GFP fluorescence relative to DMSO
Conditions: bulk GFP, single well; 28.5 h, 10 µM; inhibitor

Structure (SMILES) | % of control remaining
CC(=O)c1cc2c(N)c(C(N)=O)sc2nc1C [CBK100769] | 71.5157%
COc1ccc2[nH]cc(CCNC(=O)c3cc(C)[nH]n3)c2c1 [CBK116206] | 115.619%
COc1cc(C)c(CN2CCN(C(=O)COc3cc4ccccc4cc3C(=O)O)CC2)cc1OC [CBK296968] | 123.622%
CCCn1c(NC(=O)C2CCCN2S(=O)(=O)CC)nc2ccccc21 (stereo not shown) [CBK295624] | 124.589%
Cc1nn(C)c2ncc(C(=O)N(C)Cc3ccc(C(C)(C)C)cc3)cc12 [CBK305657] | 78.9365%
COc1cccc(NC(=O)CCCC(=O)O)c1 [CBK261324] | 100%
CNC(=O)CCc1ccccc1NC(=O)NCc1cnc(SC)n1C [CBK307507] | 121.438%
C[C@H](Nc1nc(-c2cccc(/C=C/C(=O)O)c2)cnc1N)c1ccccc1 [CBK063754] | 119%
CC(=O)c1ccc(OCc2nc(N)nc(Nc3ccccc3)n2)cc1 [CBK297155] | 134.633%
CCOC(=O)CC(=O)CSc1nc(N)c2c3c(sc2n1)CCCC3 [CBK264942] | 82.021%
Brc1n[nH]c2nc(NCc3ccco3)ncc12 [CBK022327] | 110.953%
CCCC(=O)c1ccc(S(=O)(=O)N2CCCN(Cc3ccc(F)c(C#N)c3)CC2)cc1 [CBK062910] | 92.7573%
CC(=O)C(Sc1nc(N2CCOCC2)nc(N2CCOCC2)n1)C(=O)Nc1ccccc1 (stereo not shown) [CBK266643] | 154.109%
O=C(NCCN1CCC(O)(c2cccc(F)c2)CC1)C1CC=CCC1 (stereo not shown) [CBK282451] | 137.794%
CC(C)(C)NC(=O)COc1ccc(CNc2nc[nH]n2)cc1 [CBK288179] | 121.747%
CCCc1nc(CN2CCNC(=O)C2c2ccccc2C(F)(F)F)no1 (stereo not shown) [CBK304123] | 132.543%
O=C(Nc1ccc2c(c1)OCO2)Nc1c(Br)cnc2ncccc12 [CBK105596] | 109.344%
O=C1COCC(=O)N1c1ccccn1 [CBK006233] | 120.232%
COC(=O)CCNc1nc(-c2ccc(Br)cc2)nc2ccccc12 [CBK263628] | 134.169%
O=C(N[C@H]1CCN2C(=O)c3cc(-c4ccccc4)ccc3NC(=O)[C@H]12)C1CCCC1 [CBK289349] | 125.295%
C[N+](C)(C)CCCCOC(c1ccccc1)c1ccccc1 [CBK261076I] | 109.868%
Cc1cc2c(cc1C)C(O)CC1(CCN(C(=O)C3CCCC3)CC1)O2 (stereo not shown) [CBK282743] | 134.075%
Cc1ccc(C(=O)NCc2ccco2)c(N2CCOCC2)n1 [CBK076410] | 94.5176%
COc1cccc(Nc2[nH]nnc2C(=O)Nc2cccc(C)c2C)c1 [CBK288028] | 112.407%
Clc1ccc(CSCCn2cccc2)cc1 [CBK021366] | 129.052%
COc1ccc([C@H]2CN(Cc3ccccc3)[C@@H]3CCN(C(=O)Cc4ccccc4)C[C@H]23)cc1 [CBK286285] | 31.5422%
Cc1cc(C)nc(Sc2nnc(-c3ccc(C)c(S(=O)(=O)N4CCOCC4)c3)c3ccccc23)n1 [CBK264400] | 120.907%

Structure (SMILES) | % of control remaining
O=C1Nc2ccccc2S(=O)(=O)N2CCCC12 (stereo not shown) [CBK282864] | 108.529%
Cc1nn(C)c(N2CCNCC2)c1NC(=O)C(C)c1ccccc1 (stereo not shown) [CBK045929T] | 85.7319%
COc1ccc2cc(CNc3ccc(CCc4nc5ccccc5n4C)cc3)c(=O)[nH]c2c1 [CBK286159] | 109.983%
O=C(CN1CCC(c2ccccc2F)CC1)N1CCCC1 [CBK283578] | 127.043%
COc1ccc(-c2cc(C(=O)NC3CCCCC3C)c3ccccc3n2)cc1 (stereo not shown) [CBK294459] | 111.181%
CC1CCCCN1C(=O)CCc1nc2sc3c(c2c(=O)[nH]1)CCCC3 (stereo not shown) [CBK306086] | 63.1158%
O=C(NC(c1ccccc1)c1ccsc1)C1CCN(CCc2ccccc2)CC1 (stereo not shown) [CBK148433] | 97.1403%
Cc1ccc(OCc2occc2C(=O)N2CCCC3(CCOC3)C2)cc1 (stereo not shown) [CBK307532] | 116.346%
N#Cc1ccc(Oc2cccc(/N=C/c3ccc(/C=N/c4cccc(Oc5ccc(C#N)cc5)c4)cc3)c2)cc1 [CBK261157] | 108.208%
COCCN(Cc1cnn(C)c1)C(=O)Nc1cccc2nc(C)ccc12 [CBK306529] | 106.71%
Cc1nc2ccc(NC(=S)N3c4ccccc4CC3C)cc2nc1C (stereo not shown) [CBK263169] | 96.2306%
CC(C)CNc1cc(Cl)c(S(=O)(=O)NCC(C)C)cc1C(=O)O [CBK263405] | 128.588%
CCC(C(=O)N1CCc2nc(C)[nH]c(=O)c2C1)c1ccccc1 (stereo not shown) [CBK284618] | 112.117%
Cc1ccc(SCc2ccc(C(=O)NCCN3CCOCC3)cc2)cc1 [CBK269314] | 153.825%
CN(CC(=O)Nc1cncc(OC2CCNCC2)n1)C(=O)c1ccccc1 [CBK028440T] | 110.053%
CCCCN(C)c1nccnc1-c1cccnc1 [CBK037631] | 171.867%
Cc1csc(CN(C)C(=O)c2cc3sccc3[nH]2)n1 [CBK304334] | 138.485%
CSc1ccccc1C(=O)NCCCn1ccnc1 [CBK269749] | 113.861%
Cc1cccc(N2C(=O)c3ccc(C(=O)OC(C(=O)c4ccccc4)c4ccccc4)cc3C2=O)c1 (stereo not shown) [CBK265098] | 126.426%
O=C1C=CC2=C3Oc4c(ccc5cc(O)ccc45)C(c4ccccc4C(=O)O)C3C=CC2=C1 (stereo not shown) [CBK278169N] | 100%
Cc1ccc(-n2cccn2)cc1S(=O)(=O)NCCN1CCCCC1CO (stereo not shown) [CBK307163] | 76.7929%
CCn1cnc2cc(NC(=O)C3CC4C=CC3C43CC3)ccc21 (stereo not shown) [CBK281384] | 135.736%
CCN(CC)CCOc1c(C)cc(Cl)cc1C [CBK262219] | 124.605%
O=C(c1n[nH]c2ccccc12)N1CCc2ccccc2C1 [CBK200330] | 105.104%
CC(C)c1ccc(S(=O)(=O)Nc2cccnc2)cc1 [CBK043884] | 68.8458%
O=C(CC[C@@H]1CNC(=O)[C@@H]2C[C@H](NC(=O)c3ccco3)CN12)Nc1ccccc1 [CBK289007] | 90.2284%
CC(O)(c1ccncc1)c1nccs1 (stereo not shown) [CBK281504] | 135.113%

Structure (SMILES) | % of control remaining
CCc1c(C)nc2ccccc2c1[S+]([O-])CCC(=O)OC (stereo not shown) [CBK155467T] | 105.896%
Cc1cc(C)c(S(=O)(=O)Nc2ccccc2C(=O)NCc2ccco2)c(C)c1 [CBK266382] | 126.588%
CC1(C)Cc2nc3nc(SCC(=O)c4ccc(Br)cc4)n(-c4ccccc4)c(=O)c3cc2CO1 [CBK263310] | 114.78%
O=C(CCn1c(C(F)F)cc2cccnc21)NCC1CCCO1 (stereo not shown) [CBK282165] | 125.53%
COc1cc(C2NC(=S)NC(c3ccccc3)=C2C(=O)c2ccccc2)cc(I)c1OCCO (stereo not shown) [CBK267485] | 117.332%
COCC(=O)Nc1c[nH]nc1C1CCCN(c2cccc(F)c2C#N)C1 (stereo not shown) [CBK305395] | 91.1638%
CC1CCN(C(=O)Cn2c(=O)n(C(C)C)c3ncccc32)CC1 [CBK283698] | 132.791%
CCC(CO)Nc1nccnc1-c1ccc(CO)cc1 (stereo not shown) [CBK036607] | 145%
Cc1cc(C)c(NC(=O)CSCc2cc(O)[nH]n2)c(Cl)c1 [CBK268302] | 133.562%
CC(NC(=O)CCc1cnn(C)c1)c1cccc(-n2ccnc2)c1 (stereo not shown) [CBK306139] | 129.58%
COc1ccc(Nc2cc(-c3ccccc3OC)ncn2)cn1 [CBK037176] | 199.805%
COc1ccc(-c2cc(C(F)(F)F)nc(SCC(=O)N3CCN(C)CC3)n2)cc1OC [CBK266194] | 151.445%
CCOC(=O)CNS(=O)(=O)Cc1ccccc1[N+](=O)[O-] [CBK034439] | 111.276%
O=C(Nc1ccc(N2CCN(Cc3ccccc3)CC2)cc1)c1ccc(-c2ccccc2)cc1 [CBK268622] | 87.7187%
Cc1ccc(-n2ncc(C(=O)N3CCc4ccccc4C3)c2NC(=O)c2ccco2)cc1C [CBK267207] | 134.321%
O=C(O)CC1C(=O)NCCN1CCCc1ccccc1 (stereo not shown) [CBK287176] | 86.7918%
CCCCSc1nc(N)cc(N2CCN3C(=O)CN(C)C(=O)C3C2)n1 (stereo not shown) [CBK306940] | 132.81%
CCn1c(SCC(=O)Nc2cc(C)ccc2F)nnc1-c1ccccc1O [CBK269532] | 82.0267%
O=C(CN(c1ccccc1)S(=O)(=O)c1ccccc1[N+](=O)[O-])Nc1ccc(I)cc1 [CBK263755] | 89.2294%
O=[N+]([O-])c1ccc(S(=O)(=O)N2CCC3(CC2)OCCO3)cc1 [CBK269303] | 94.8142%
c1ccc(CN2CCN(Cc3ccccc3)C2c2ccc[nH]2)cc1 [CBK261283] | 100%
O=C(CN1CCOCC1)N/N=C/c1cc2ccccc2nc1Cl [CBK262732] | 132.562%
COCCN(Cc1cnn(C)c1)C(=O)Cc1coc2cc(C)c(Cl)cc12 [CBK307435] | 76.4931%
Cc1cc(-c2nccnc2N2CCN(CCN(C)C)CC2)cc(C)c1O [CBK037184] | 127.235%
COc1cccc(CC(=O)N2CCC[C@@H](N)[C@@H]2c2ccccc2F)c1 [CBK283455] | 172.994%

Four entries out of the list, ordered by molecular weight, low to high:
Structure (SMILES) | % of control remaining
Cc1csc(CN(C)C(=O)c2cc3sccc3[nH]2)n1 [CBK304334] | 138.485%
CC(=O)c1ccc(OCc2nc(N)nc(Nc3ccccc3)n2)cc1 [CBK297155] | 134.633%
Cc1ccc(SCc2ccc(C(=O)NCCN3CCOCC3)cc2)cc1 [CBK269314] | 153.825%
O=C(Nc1ccc(N2CCN(Cc3ccccc3)CC2)cc1)c1ccc(-c2ccccc2)cc1 [CBK268622] | 87.7187%

2 consecutive compounds already listed:
Structure (SMILES) | % of control remaining
CC(=O)C(Sc1nc(N2CCOCC2)nc(N2CCOCC2)n1)C(=O)Nc1ccccc1 (stereo not shown) [CBK266643] | 154.109%
O=C(NCCN1CCC(O)(c2cccc(F)c2)CC1)C1CC=CCC1 (stereo not shown) [CBK282451] | 137.794%

From PMC12040169 (PLOS Biology, 2025)
